For assay [1], the target named is SOD1^Leu126delTT with a FLAG sequence at C terminal (DF mutant SOD1) (human) (UniProt P00441). Nature of the assay: affinity purification with mass spectrometry; spinal cord of mice aged 145 days (DF symptomatic; WF); extract in 0.15 M NaCl, 10 mM Tris-HCl, 1% Triton X-100, pH 7.4; anti-FLAG M2 affinity gel, elution with 3xFLAG peptide, trypsin digest, LC-MS/MS.
For assay [2] the target is unchanged. Nature of the assay: affinity purification with mass spectrometry; cerebellum of DF mice aged 145 days; same lysis buffer; anti-FLAG M2 affinity gel, elution with 3xFLAG peptide, LC-MS/MS.
The target is the same in assay [3]. Nature of the assay: affinity purification with mass spectrometry; spinal cord of presymptomatic DF mice aged 35 days; same lysis buffer; anti-FLAG M2 affinity gel, elution with 3xFLAG peptide, LC-MS/MS.
In assay [4] the target is wild-type human SOD1 with the FLAG sequence (WF SOD1) (human) (UniProt P00441). Nature of the assay: affinity purification with mass spectrometry; spinal cord of mice aged 145 days (DF symptomatic; WF); extract in 0.15 M NaCl, 10 mM Tris-HCl, 1% Triton X-100, pH 7.4; anti-FLAG M2 affinity gel, elution with 3xFLAG peptide, trypsin digest, LC-MS/MS.

Protein sequences, listed by entry. Tags and fused reporters are not part of them. Residues count along the entry.
UniProt P56480, residues 47-529: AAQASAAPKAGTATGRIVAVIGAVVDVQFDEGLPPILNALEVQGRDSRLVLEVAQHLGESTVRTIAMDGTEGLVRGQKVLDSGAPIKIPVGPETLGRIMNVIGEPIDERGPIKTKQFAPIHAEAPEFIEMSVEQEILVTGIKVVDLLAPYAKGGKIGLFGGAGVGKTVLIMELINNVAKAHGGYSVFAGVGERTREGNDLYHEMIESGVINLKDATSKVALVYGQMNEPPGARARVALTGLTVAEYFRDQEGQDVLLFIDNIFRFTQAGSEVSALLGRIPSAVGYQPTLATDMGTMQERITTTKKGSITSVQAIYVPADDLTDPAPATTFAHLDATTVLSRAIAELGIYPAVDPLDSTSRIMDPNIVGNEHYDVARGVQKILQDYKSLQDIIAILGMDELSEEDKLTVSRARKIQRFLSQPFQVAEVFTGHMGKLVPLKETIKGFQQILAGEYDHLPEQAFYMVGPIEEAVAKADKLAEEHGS
UniProt Q9CYT6: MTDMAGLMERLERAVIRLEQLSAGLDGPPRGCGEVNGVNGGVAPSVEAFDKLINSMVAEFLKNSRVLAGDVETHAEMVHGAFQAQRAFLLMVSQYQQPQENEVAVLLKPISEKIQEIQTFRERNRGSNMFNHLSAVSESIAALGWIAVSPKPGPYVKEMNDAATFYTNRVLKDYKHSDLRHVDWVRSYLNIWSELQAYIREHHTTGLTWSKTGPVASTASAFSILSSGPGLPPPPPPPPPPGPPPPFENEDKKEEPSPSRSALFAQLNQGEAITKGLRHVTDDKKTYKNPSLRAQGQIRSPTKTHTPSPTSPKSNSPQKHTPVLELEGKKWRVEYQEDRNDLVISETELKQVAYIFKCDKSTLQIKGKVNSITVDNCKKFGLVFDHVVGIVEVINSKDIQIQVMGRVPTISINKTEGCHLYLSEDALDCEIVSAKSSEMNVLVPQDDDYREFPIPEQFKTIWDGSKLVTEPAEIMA
UniProt Q8BGD9: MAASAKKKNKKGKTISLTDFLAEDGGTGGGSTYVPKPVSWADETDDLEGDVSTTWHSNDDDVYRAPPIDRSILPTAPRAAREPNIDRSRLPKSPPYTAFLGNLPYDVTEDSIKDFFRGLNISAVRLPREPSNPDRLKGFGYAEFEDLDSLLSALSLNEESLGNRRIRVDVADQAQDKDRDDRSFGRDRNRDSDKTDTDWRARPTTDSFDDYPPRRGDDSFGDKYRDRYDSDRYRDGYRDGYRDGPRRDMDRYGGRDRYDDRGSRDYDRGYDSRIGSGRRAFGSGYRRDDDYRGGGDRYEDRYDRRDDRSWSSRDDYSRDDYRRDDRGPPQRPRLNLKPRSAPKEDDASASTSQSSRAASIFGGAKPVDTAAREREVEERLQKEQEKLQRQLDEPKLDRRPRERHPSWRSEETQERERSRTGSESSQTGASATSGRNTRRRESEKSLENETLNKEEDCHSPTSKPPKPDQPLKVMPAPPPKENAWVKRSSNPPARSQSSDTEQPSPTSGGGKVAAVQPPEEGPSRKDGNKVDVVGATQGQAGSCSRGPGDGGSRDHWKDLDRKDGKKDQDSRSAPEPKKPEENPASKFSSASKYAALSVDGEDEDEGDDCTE
UniProt P16627: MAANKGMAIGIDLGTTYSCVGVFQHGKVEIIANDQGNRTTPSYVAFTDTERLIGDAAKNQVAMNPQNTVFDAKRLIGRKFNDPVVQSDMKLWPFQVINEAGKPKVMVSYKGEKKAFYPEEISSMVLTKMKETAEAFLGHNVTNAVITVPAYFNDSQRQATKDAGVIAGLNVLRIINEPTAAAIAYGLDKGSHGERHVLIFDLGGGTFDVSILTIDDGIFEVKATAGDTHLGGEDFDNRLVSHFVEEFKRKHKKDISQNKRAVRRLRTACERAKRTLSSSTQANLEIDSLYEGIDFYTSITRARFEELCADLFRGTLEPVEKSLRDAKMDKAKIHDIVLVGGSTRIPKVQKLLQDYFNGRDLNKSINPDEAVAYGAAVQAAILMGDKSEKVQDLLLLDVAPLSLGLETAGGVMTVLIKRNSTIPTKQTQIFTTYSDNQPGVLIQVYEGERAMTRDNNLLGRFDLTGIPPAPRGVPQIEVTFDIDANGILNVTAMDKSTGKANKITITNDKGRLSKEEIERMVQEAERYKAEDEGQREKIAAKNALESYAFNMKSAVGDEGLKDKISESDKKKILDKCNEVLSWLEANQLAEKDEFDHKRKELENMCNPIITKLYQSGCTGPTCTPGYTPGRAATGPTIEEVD
UniProt P38647, residues 47-679: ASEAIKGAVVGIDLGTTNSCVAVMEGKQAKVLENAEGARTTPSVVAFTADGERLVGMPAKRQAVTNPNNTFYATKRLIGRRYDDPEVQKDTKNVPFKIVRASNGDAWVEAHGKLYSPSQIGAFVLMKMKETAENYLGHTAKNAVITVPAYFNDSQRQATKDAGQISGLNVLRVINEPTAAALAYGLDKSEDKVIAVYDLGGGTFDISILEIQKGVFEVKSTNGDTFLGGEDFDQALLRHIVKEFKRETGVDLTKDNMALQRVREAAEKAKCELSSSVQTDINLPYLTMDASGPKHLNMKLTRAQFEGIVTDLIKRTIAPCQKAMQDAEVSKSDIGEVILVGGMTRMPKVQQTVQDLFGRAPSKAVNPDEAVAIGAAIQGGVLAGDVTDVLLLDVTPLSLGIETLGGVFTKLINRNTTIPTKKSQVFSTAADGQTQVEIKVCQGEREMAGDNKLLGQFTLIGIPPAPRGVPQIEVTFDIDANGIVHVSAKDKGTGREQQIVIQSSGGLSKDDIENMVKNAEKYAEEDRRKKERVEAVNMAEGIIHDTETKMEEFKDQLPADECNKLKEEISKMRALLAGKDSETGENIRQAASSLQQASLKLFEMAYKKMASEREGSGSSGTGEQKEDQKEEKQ
UniProt P17156: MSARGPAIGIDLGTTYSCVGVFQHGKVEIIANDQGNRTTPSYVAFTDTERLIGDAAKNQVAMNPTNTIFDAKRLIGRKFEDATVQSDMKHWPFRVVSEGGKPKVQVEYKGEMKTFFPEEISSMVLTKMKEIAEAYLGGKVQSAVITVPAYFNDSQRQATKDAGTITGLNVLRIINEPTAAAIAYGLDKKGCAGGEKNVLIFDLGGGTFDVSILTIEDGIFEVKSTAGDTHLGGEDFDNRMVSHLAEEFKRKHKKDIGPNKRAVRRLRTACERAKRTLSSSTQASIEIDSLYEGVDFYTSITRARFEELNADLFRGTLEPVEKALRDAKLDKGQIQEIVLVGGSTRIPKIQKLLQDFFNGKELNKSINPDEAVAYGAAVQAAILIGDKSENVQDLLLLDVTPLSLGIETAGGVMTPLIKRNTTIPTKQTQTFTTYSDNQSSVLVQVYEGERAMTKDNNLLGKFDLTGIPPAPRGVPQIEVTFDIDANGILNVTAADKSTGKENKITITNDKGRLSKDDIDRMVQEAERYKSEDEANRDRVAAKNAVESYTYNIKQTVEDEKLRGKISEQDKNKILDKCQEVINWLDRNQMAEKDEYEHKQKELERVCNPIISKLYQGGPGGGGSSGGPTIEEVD
UniProt P20357: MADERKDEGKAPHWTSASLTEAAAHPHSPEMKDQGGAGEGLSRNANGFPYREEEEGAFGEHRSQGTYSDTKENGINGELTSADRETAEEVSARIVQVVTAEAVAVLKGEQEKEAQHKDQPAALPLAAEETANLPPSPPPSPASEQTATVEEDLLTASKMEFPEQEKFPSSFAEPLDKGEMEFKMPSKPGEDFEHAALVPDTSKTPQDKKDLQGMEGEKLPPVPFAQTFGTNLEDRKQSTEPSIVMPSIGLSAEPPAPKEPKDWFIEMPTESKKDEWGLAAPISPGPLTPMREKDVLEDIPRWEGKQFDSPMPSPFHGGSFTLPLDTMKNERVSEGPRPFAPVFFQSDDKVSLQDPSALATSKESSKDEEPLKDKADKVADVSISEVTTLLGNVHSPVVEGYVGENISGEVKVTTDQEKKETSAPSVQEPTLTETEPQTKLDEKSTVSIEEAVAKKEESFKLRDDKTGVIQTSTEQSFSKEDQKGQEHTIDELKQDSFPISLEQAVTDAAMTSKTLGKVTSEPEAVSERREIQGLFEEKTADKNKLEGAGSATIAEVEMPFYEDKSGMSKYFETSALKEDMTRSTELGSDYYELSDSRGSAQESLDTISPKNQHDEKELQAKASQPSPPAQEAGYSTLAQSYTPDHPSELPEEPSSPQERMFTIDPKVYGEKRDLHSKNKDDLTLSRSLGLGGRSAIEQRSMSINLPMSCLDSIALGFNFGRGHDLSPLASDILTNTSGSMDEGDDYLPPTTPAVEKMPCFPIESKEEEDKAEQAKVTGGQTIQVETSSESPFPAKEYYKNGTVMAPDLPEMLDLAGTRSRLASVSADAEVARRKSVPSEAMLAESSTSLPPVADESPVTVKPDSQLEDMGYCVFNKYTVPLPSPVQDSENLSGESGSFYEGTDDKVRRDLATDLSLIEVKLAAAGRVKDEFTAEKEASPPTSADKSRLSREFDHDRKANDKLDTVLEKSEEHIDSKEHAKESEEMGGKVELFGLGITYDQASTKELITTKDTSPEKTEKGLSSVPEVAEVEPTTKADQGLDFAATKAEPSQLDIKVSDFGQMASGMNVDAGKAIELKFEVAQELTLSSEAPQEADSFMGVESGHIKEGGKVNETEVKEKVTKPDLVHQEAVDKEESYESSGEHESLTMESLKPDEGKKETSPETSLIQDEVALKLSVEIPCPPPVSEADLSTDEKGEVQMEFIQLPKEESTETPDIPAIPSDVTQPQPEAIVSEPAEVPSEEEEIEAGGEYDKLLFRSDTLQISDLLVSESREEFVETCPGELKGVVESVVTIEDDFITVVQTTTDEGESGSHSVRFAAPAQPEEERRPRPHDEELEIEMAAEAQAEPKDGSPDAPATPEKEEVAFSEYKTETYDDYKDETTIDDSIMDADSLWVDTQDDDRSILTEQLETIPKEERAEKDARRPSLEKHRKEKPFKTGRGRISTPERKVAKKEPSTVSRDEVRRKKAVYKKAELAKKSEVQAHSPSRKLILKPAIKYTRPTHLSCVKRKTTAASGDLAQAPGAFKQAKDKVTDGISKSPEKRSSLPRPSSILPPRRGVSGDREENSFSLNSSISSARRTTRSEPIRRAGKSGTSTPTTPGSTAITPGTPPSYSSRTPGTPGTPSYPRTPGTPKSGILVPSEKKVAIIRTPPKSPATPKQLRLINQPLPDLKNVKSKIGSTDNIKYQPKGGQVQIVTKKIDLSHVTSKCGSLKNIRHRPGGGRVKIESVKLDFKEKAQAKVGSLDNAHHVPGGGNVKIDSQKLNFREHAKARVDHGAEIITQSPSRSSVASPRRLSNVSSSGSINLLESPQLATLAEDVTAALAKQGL
UniProt P04370: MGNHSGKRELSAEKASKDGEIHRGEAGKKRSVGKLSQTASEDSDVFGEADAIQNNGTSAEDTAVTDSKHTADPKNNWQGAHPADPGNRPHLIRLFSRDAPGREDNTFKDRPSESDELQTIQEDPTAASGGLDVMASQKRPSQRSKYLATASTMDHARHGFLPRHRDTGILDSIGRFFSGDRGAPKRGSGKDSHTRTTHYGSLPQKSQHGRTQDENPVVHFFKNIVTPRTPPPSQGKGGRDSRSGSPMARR
UniProt Q9R0P9: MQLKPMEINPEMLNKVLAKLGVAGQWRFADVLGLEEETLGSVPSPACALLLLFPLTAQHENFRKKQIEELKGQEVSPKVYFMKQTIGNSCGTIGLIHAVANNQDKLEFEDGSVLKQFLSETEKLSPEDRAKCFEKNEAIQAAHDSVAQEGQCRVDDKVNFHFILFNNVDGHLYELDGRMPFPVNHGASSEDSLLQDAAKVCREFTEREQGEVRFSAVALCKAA

These are yes or no findings as the source states them, for the method shown. In cells and extracts the contact can be indirect. A yes stands for co-enrichment or nearness to the bait. Other partners may have been found.

Consider “ATP synthase β subunit (from UniProt P56480 47-529)”, for which the binding result in assay [1] is “binds”. As for “Na/K ATPase α 2 subunit (from UniProt Q6PIE5 1-1020)”, the binding entry in assay [1], in assay [2] and in assay [3] was “binds” throughout.

Turning to “Na/K ATPase α 4 subunit (from UniProt Q9WV27 1-1032)”, the binding result in assay [2] and in assay [3] was “binds” in each case.

For the substance “adenylate cyclase-associated protein 2 (from UniProt Q9CYT6 1-476)”, the binding result in assay [2] is reported as “binds”. “eukaryotic translation initiation factor 4B (from UniProt Q8BGD9 1-611)”: the binding result in assay [2] and in assay [3] was “binds” throughout. Turning to “heat shock 70 protein 1-like (from UniProt P16627 1-641)”, the binding entry in assay [1] and in assay [2] was “binds” in each case. On to “heat shock protein 9A (from UniProt P38647 47-679)”, for which the binding result in assay [1] is listed as “binds”. As to “heat shock protein 70-2 (from UniProt P17156 1-633)”, the binding entry in assay [1], in assay [4], in assay [2] and in assay [3] was “binds” each time. As for “microtubule-associated protein 2 (from UniProt P20357 1-1828)”, the binding result in assay [1] is listed as “binds”. On to “myelin basic protein (from UniProt P04370 1-250)”, for which the binding result in assay [1] and in assay [3] was “binds” each time. For the substance “ubiquitin carboxy-terminal hydrolase L1 (from UniProt Q9R0P9 1-223)”, the binding entry in assay [1] is reported as “binds”.
